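Methionyl-tRNA synthetase (putative), Leishmania donovani (UniProt E9BF75). Primary screen of methionyl-tRNA synthetase; the read-out is not stated. The test concentration is not given. Values are per cent inhibition. Of about 68,000 compounds tested this way, about 24 (0.035%) reached 50% or more in at least one test.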

By UniProt entry, the sequences of proteins in these tests, tags left out.
UniProt E9BF75, entry or part of it: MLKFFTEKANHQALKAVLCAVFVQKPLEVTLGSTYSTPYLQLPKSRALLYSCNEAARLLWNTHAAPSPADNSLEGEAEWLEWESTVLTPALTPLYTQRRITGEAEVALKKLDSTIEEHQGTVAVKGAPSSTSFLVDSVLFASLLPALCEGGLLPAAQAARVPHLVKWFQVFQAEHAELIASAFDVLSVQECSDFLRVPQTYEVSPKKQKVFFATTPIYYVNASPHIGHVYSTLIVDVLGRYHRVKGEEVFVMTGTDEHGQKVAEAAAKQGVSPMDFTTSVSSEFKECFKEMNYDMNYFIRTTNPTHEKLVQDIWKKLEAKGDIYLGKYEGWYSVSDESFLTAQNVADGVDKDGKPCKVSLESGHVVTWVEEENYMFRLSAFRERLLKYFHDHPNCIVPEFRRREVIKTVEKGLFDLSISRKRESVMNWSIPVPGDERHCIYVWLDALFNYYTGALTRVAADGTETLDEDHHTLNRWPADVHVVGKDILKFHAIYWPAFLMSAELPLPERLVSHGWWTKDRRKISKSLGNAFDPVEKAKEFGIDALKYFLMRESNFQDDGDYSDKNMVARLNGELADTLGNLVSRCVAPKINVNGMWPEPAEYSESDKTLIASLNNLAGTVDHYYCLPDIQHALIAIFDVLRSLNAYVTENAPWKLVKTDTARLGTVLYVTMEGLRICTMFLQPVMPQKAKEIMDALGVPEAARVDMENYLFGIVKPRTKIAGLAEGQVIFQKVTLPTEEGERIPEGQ

All values are in %. The record does not define 0% and 100%; most values in the screen are far below 50% and negative numbers occur (in some assays of this library far below -100). Compounds were drawn at random from those tested, without regard to their results.

| SMILES | Inhibition |
|---|---|
| `O=C(NCc1ccccn1)NC1CCOc2ccccc21` (stereo not drawn) | 8.571 |
| `N#Cc1ccc(CNC(=O)NC2CCN(c3ncccn3)CC2)cc1` | 9.964 |
| `CC(C)(CN)NS(=O)(=O)c1c(F)cccc1F` | 11.42 |
| `O=C1CC2(CCN(C(=O)c3ccncc3)CC2)Oc2c(Cl)cc(Cl)cc21` | 12.5 |
| `CCC(NC(=O)c1cc(NC(C)=O)ccc1Cl)c1cc(C)ccn1` (stereo not drawn) | 19.15 |
| `CCCC1(CNCc2ncc[nH]2)CCC1` | 6.906 |
| `Cc1ccc(C)c(NC(=O)N(C)Cc2cnn(C)c2)c1` | 4.575 |
| `O=C1C(Nc2ccc3nccnc3n2)CCN1c1ccccc1F` (stereo not drawn) | 15.19 |
| `Cc1noc(C)c1CN1CC[C@@H]2O[C@H](COCC3CC3)CC[C@@H]21` | 8.795 |
| `COCCN1CCN(Cc2csc(-c3cnn(C)c3)n2)CC1` | 9.836 |
| `CC(O)CN1CCC(CN(C)Cc2ccc(C(N)=O)cc2)CC1` (stereo not drawn) | 6.015 |
| `N#CC1COCCN1S(=O)(=O)c1ccc(F)c(Br)c1` (stereo not drawn) | 12.09 |
| `c1cnnc(N2CCC(c3nnc(Cn4ccnc4)n3C3CC3)CC2)c1` | 10.65 |
| `Cc1cccnc1C(=O)N1CCCCC1c1[nH]ncc1S(C)(=O)=O` (stereo not drawn) | 13.64 |
| `O=c1[nH]c(-c2ccccc2F)nc2c1CCNC2` | 0 |
| `Cc1oncc1C(=O)N1CCC2(CCN(Cc3cccnc3)C2=O)C1` (stereo not drawn) | 17.18 |
| `CCOc1ccc(CC(=O)Nc2cnccc2SCCCO)cc1` | 9.235 |
| `COCCC(C)NC(=O)Nc1ccc(N2CCOC2=O)c(OC)c1` (stereo not drawn) | 12.73 |
| `CSCC(=O)N1CCCC1c1noc(C2CC2)n1` (stereo not drawn) | 9.756 |
| `CC(C)OCCCNC(=O)CS(=O)(=O)Cc1ccc(C(C)C)cc1` | 18.18 |
| `Cc1cc(F)ccc1N1CCCC(NC2CCSCC2)C1=O` (stereo not drawn) | 12.01 |
| `Cc1ccc(OCC(O)COC2CCOCC2)c(Cl)c1` (stereo not drawn) | 7.463 |
| `CN(C)CCNc1c(-c2ccccc2)c(=O)c1=O` | 11.7 |
| `CC1c2ncc(CN3CCN(C)CC3)n2CCN1Cc1ccc(F)cc1` (stereo not drawn) | 13.71 |
| `Cc1ncc(C(=O)NC2CCN(CCOc3ccc(Br)cc3)CC2)s1` | 21.87 |
| `COCC(=O)Nc1nnc2n(Cc3cccc(OC)c3)[nH]c(C)c1-2` | 12.59 |
| `CC(C)Cc1cc(C(=O)NCC2CCCN(c3ccccn3)C2)on1` (stereo not drawn) | 8.362 |
| `N#Cc1ccc(OC2CCN(C(=O)COCC3CCCO3)CC2)cc1` (stereo not drawn) | 15.62 |
| `CN(C)C(=O)CCC(=O)NCc1cccnc1-n1cnc2ccccc21` | 10.37 |
| `O=C(NCc1cccnc1N1CCc2ccccc2C1)c1cc(=O)[nH][nH]1` | 33.57 |
| `CN(Cc1cn2c(n1)CN(Cc1ccsc1)CC2)Cc1ccco1` | 15.93 |
| `Cc1nnc(N2CCOC(CN(C)C)C2)c(C#N)c1C` (stereo not drawn) | 17.49 |
| `O=C(c1ccnnc1)N1C[C@@H]2C[C@@H](c3nc(C4CC4)cs3)O[C@@H]2C1` | 18.4 |
| `CC(C)Oc1ncccc1CNC(=O)NC1CCOc2ccccc21` (stereo not drawn) | 8.659 |
| `Cn1nccc1-c1cnc2n1CCC21CCN(C(=O)C2(C)CC2)CC1` | 15.25 |
| `CN(CCCc1cc(-c2ccc(F)cc2)n(C)n1)CC(N)=O` | 15.05 |
| `CCc1c(O)nc2nc(N3CCCC3)nn2c1C` | 9.922 |
| `Cc1ccc(N2CCC3(CCCN3Cc3ccn(C)n3)CC2)nn1` | 14.29 |
| `OCCC1CN(c2ncnc3[nH]cnc23)CCN1Cc1cccs1` (stereo not drawn) | 7.971 |
| `O=C(Nc1ccc(-c2ccccc2)cn1)C1CCCN1C(=O)C1CC1` (stereo not drawn) | 0.7732 |
| `O=C1CO[C@H]2CCN(C(=O)c3ccc4c(c3)CCCC4)CC[C@@H]2N1` | 10.87 |
| `Cc1ccc(-c2nnc(CNCCn3cc(C)cn3)o2)cc1` | 14.29 |
| `COc1cccc(CN2CCC(CO)(Cc3ccc(Cl)cc3)CC2)c1O` | 14.78 |
| `O=C(NCc1ccccn1)[C@@H]1COC[C@H]2CN(C3CCOCC3)C[C@H]21` | 9.091 |
| `CCOC(=O)c1nc(CN2CCN(C(C)C(=O)NC3CC3)CC2)cs1` (stereo not drawn) | 9.946 |
| `O=C1N(CC2CC2)C2(CCSCC2)NC12CCCC2` | 15.73 |
| `COc1ccccc1OC1CN(C(=O)C(c2ccc(F)cc2)N(C)C)C1` (stereo not drawn) | 21.25 |
| `CC(=O)N1CCCN(C(=O)NCCCn2cncn2)CC1` | 14.75 |
| `CCn1nc(C)cc1S(=O)(=O)N1CCC2(CCCN(C(C)C)C2=O)C1` (stereo not drawn) | 10.56 |
| `N#Cc1ccc(OCCN2CCc3cncnc3C2)cc1` | 22.89 |
| `CC(=O)NCCC1CCCCN1S(=O)(=O)c1cccc(C#N)c1` (stereo not drawn) | 18.5 |
| `Cn1c(C(F)(F)F)nn(CCNC(=O)Nc2ccccc2F)c1=O` | 15.03 |
| `Cc1cc(NCCS(C)(=O)=O)nc2ccccc12` | 8.967 |
| `Cc1ncc(C(=O)N2CCCC2(C)C(=O)N2CCOCC2)c(C)n1` (stereo not drawn) | 14.36 |
| `N#Cc1cccnc1NCc1ccc(S(=O)(=O)NC2CC2)cc1` | 10.21 |
| `Cc1ccc2nc(C(=O)N3CCC(CCn4cccn4)CC3)cn2c1` | 11.56 |
| `Cc1ccc(C(CNC(=O)Nc2cn[nH]c2)N2CCOCC2)o1` (stereo not drawn) | 25.41 |
| `O=S(=O)(NC[C@]12COC[C@H]1CN(c1ncc(F)cn1)C2)C1CC1` | 10.14 |

Once more, the final 3:

For Cc1ccc2nc(C(=O)N3CCC(CCn4cccn4)CC3)cn2c1 the result was 11.56%.
For Cc1ccc(C(CNC(=O)Nc2cn[nH]c2)N2CCOCC2)o1 (stereo not drawn) the result was 25.41%.
For O=S(=O)(NC[C@]12COC[C@H]1CN(c1ncc(F)cn1)C2)C1CC1 the result was 10.14%.

Measurements from “University of Dundee, Small-Polar-MMV Screening Library” (2021), ChEMBL document CHEMBL3988442.